From patent US20140141099A1, “DRUG DISCOVERY METHODS” (Vertex Pharmaceuticals Incorporated, priority 2007, published 2014)
Where two headings read alike, the source gives them in different places. Some entries share one result that the patent states for a list of compounds.

Protein sequences, listed by entry. Tags and fused reporters are not part of them.
UniProt Q96GD4, whole entry: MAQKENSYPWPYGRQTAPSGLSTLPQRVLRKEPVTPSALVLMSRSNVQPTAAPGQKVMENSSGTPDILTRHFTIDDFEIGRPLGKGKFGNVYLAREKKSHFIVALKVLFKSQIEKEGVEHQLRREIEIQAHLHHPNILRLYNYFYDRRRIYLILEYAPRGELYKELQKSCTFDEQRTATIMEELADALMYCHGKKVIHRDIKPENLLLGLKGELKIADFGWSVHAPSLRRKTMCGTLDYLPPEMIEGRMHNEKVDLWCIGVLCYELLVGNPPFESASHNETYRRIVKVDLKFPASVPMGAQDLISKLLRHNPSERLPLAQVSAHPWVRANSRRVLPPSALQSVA

Target: Aurora-B (Homo sapiens, UniProt Q96GD4)
Experiment: Aurora-B Ki* Determination and Ki/Ki* ratio (radioactive-phosphate incorporation assay)
Assay type: biochemical

Cc1cc(Nc2cc(N3CCC3)nc(Sc3ccc(NC(=O)c4ccccc4C(F)(F)F)cc3)n2)[nH]n1 [Compound 13]
AurB Ki/AurB Ki* ratio (Aurora B, Ki* after pre-incubation and rapid dilution): > 3

Cc1cc(Nc2cc(N3CC(F)(C4CC4)C3)nc(Sc3ccc(NC(=O)CC(F)(F)F)cc3)n2)[nH]n1 [Compound 35]
AurB Ki/AurB Ki* ratio: > 3
